Results from PubChem BioAssay AID588590 (National Center for Advancing Translational Sciences (NCATS), 2011).
In all, about 390,000 compounds went through this assay and about 4,000 (1%) were called active. The shares of active, inactive and inconclusive entries below differ from those in the screen. Calls follow the shape of the dose curve; as a rule, active = well fitted inhibition curve with a large enough effect; inconclusive = small, poorly fitted or top-dose-only effect, or another doubt; inactive = no such curve, though single readings can be large or run the other way. A potency beside an inconclusive call is a rough fit, not a confirmed value.

By UniProt entry, the sequences of proteins in these tests, tags left out. Where a name states a change or a piece, a line headed by the entry shows the natural chain unless it says otherwise.
UniProt Q9UNA4: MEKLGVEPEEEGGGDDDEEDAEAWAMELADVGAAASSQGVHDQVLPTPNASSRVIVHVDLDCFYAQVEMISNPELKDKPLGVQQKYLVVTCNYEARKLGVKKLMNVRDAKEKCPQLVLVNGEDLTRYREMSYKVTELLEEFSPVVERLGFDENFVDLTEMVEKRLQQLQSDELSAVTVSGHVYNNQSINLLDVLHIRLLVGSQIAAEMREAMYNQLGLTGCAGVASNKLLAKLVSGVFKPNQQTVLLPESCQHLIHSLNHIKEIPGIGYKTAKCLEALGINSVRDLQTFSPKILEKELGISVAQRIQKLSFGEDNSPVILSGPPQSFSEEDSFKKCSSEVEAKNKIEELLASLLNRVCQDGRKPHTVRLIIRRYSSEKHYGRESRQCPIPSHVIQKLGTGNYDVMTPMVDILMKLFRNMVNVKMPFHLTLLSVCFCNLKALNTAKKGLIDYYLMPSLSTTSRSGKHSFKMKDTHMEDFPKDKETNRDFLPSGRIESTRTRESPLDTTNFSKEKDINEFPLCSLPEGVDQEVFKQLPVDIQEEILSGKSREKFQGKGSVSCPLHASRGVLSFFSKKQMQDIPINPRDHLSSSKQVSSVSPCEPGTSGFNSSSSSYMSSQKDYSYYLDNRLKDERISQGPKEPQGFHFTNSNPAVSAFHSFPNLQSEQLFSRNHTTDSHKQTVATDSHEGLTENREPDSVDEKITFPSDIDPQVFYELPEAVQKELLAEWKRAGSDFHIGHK

biological target: DNA polymerase iota (Homo sapiens) (UniProt Q9UNA4); assay: qHTS for Inhibitors of Polymerase Iota; details: Pol iota fluorescent replication assay, 10 min; series mostly up to 115 µM
Outline: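 Pol iota at 10 nM preincubated 15 min with compounds at room temperature; reaction started with fluorescent substrate, 50 nM final. Fluorescence read kinetically at 0 and 10 min; buffer-only wells as negative control.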
Potency is read from the fitted curve at half-maximal effect.

SMILES	Potency
COCCNC(=O)C(c1ccco1)N(C(=O)Cn1nnc2ccccc21)c1ccccc1C (configuration not stated)	inconclusive: 39.8 µM [inhibitor, single point]
CCCCCCSc1ccc(-c2nc3ccc(C)cn3c2NCc2ccccc2)cc1OC	inconclusive: 39.8 µM [inhibitor, single point]
NC(=O)Cn1nnc(-c2ccc(NC(=O)c3ccc(F)cc3)cc2)n1	inactive
Cc1csc(NC(=O)COCC(=O)O)c1-c1nc2ccccc2s1	inconclusive: 20 µM [inhibitor, full curve, poor fit]
OCCN=c1cc(-c2ccccc2)oc2ccc(Cl)cc12	inconclusive: 5.62 µM [inhibitor, full curve, poor fit]
O=c1[nH]c(/C(=N\O)c2ccccc2)no1	inconclusive: 11.2 µM [inhibitor, single point]
COC(=O)c1ccc(N2NC(=O)/C(=C/c3ccc(-c4ccc(Cl)c(C(=O)O)c4)o3)C2=O)cc1	active: 8.91 µM
COc1ccc(S(=O)(=O)n2nc(OC(C)=O)cc2N)cc1	inconclusive: 20 µM [inhibitor, partial curve, poor fit]
CCOC(=O)C1CCN(C(=O)c2ccc3c(Cl)c4c(nc3c2)CCCC4)CC1	inconclusive: 35.5 µM [inhibitor, partial curve]
Cc1noc(C)c1C(=O)Nc1sc(C)c(C)c1C#N	inconclusive: 56.2 µM [inhibitor, partial curve, poor fit]
CC(Sc1nc2sc3c(c2c(=O)n1-c1ccccc1)CCCC3)C(=O)O (configuration not stated)	inactive
CC(C)(C)[C@@H]1CCC(=O)N(CC[C@H](Sc2ccccc2)c2ccccc2)CC1	inconclusive: 25.1 µM [inhibitor, partial curve]
COc1ccccc1Nc1cc2cc(Br)ccc2c(=O)[nH]1	inconclusive: 35.5 µM [inhibitor, full curve, poor fit]
COC(=O)C1C(O)C(C)C(O)C(C)(O)/C=C\C=C(/C)C(=O)Nc2c(C)c(OC(C)=O)c3c(c2O)C(=O)C(C)=C2OCOC(=C23)/C(C)=C/C(C)(O)C(O)C(C)C1O (configuration not stated)	inconclusive: 25.1 µM [inhibitor, partial curve]
COc1cc(/C=N/NC(N)=S)ccc1OCC(=O)N1CCOCC1	inactive
O=C(C[n+]1cc(Br)cc(Br)c1)c1cccc([N+](=O)[O-])c1	inconclusive: 39.8 µM [inhibitor, single point]
Nc1c(-c2ccccc2)sc2ccc3ccccc3[n+]12	inconclusive: 100 µM [inhibitor, partial curve, poor fit]

Two entries picked at random from the list so far, as already listed:
SMILES	Potency
Cc1noc(C)c1C(=O)Nc1sc(C)c(C)c1C#N	inconclusive: 56.2 µM [inhibitor, partial curve, poor fit]
COCCNC(=O)C(c1ccco1)N(C(=O)Cn1nnc2ccccc21)c1ccccc1C (configuration not stated)	inconclusive: 39.8 µM [inhibitor, single point]
